Assay: general procedure: solution-phase peptide synthesis
Details: conjugation step, adduct with 2 NaCl molecules (ST 873); adduct with 2 NaCl and 2 HCl molecules (ST 897)

For “N-5-(ipoxantin-9-yl) pentyloxycarbonyl L-arginyl L-lysyl L-alpha-aspartyl L-valyl L-tyrosine”, the conjugation yield was 33%.
With “N-5-(ipoxantin-9-yl) pentyloxycarbonyl L-valyl L-alpha-aspartyl L-lysyl L-arginine” the conjugation yield was 35%.
